Measured values taken from the supplement of paper PMC8728848.
The other results are listed elsewhere or left out.

What was measured:
Test in all cases: glycan array binding signal (z-score within array); higher = stronger binding
Details in all cases: glycan notation: IUPAC condensed, linker removed
[1] = biological target: Neu5Ac(a2-3)Gal(b1-4)GlcNAc(b1-6)GalNAc
Procedure, shortened: (§1)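 Glycan array data were curated from 3228 arrays in the Consortium for Functional Glycomics database and kept only where the protein sequence was available. Glycan names were converted to IUPAC-condensed notation, and columns mapping to the same glycan were averaged. The binding signal is a within-array Z-score, averaged across arrays of the same protein sequence at different concentrations or buffers and across linkers. Negative Z-scores can be read as non-binding.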

[2] = biological target: Neu5Ac(a2-3)Gal(b1-4)GlcNAc(b1-6)[Gal(b1-3)]GalNAc
Procedure, shortened: as §1

[3] = biological target: Neu5Ac(a2-3)Gal(b1-4)GlcNAc(b1-6)[Neu5Ac(a2-3)Gal(b1-3)]GalNAc
Procedure, shortened: as §1

[4] = biological target: Neu5Ac(a2-3)Gal(b1-4)GlcNAc6S
Procedure, shortened: as §1

[5] = biological target: Neu5Ac(a2-3)Gal(b1-4)[Fuc(a1-3)]GlcNAc
Procedure, shortened: as §1

[6] = biological target: Neu5Ac(a2-3)Gal(b1-4)[Fuc(a1-3)]GlcNAc(b1-2)Man
Procedure, shortened: as §1

[7] = biological target: Neu5Ac(a2-3)Gal(b1-4)[Fuc(a1-3)]GlcNAc(b1-3)Gal
Procedure, shortened: as §1

[8] = biological target: Neu5Ac(a2-3)Gal(b1-4)[Fuc(a1-3)]GlcNAc(b1-3)Gal(b1-4)GlcNAc
Procedure, shortened: as §1

[9] = biological target: Neu5Ac(a2-3)Gal(b1-4)[Fuc(a1-3)]GlcNAc(b1-3)Gal(b1-4)[Fuc(a1-3)]GlcNAc(b1-3)Gal(b1-4)[Fuc(a1-3)]GlcNAc
Procedure, shortened: as §1

[10] = biological target: Neu5Ac(a2-3)Gal(b1-4)[Fuc(a1-3)]GlcNAc(b1-3)GalNAc
Procedure, shortened: as §1

[11] = biological target: Neu5Ac(a2-3)Gal(b1-4)[Fuc(a1-3)]GlcNAc(b1-6)[Gal(b1-3)]GalNAc
Procedure, shortened: as §1

[12] = biological target: Neu5Ac(a2-3)Gal(b1-4)[Fuc(a1-3)]GlcNAc(b1-6)[Neu5Ac(a2-3)Gal(b1-3)]GalNAc
Procedure, shortened: as §1

[13] = biological target: Neu5Ac(a2-3)Gal(b1-4)[Fuc(a1-3)]GlcNAc6S
Procedure, shortened: as §1

[14] = biological target: Neu5Ac(a2-3)Gal6S(b1-4)GlcNAc
Procedure, shortened: as §1

[15] = biological target: Neu5Ac(a2-3)Gal6S(b1-4)[Fuc(a1-3)]GlcNAc
Procedure, shortened: as §1

[16] = biological target: Neu5Ac(a2-3)GalNAc
Procedure, shortened: as §1

[17] = biological target: Neu5Ac(a2-3)GalNAc(b1-4)GlcNAc
Procedure, shortened: as §1

[18] = biological target: Neu5Ac(a2-3)[GalNAc(b1-4)]Gal(b1-4)Glc
Procedure, shortened: as §1

[19] = biological target: Neu5Ac(a2-3)[GalNAc(b1-4)]Gal(b1-4)GlcNAc
Procedure, shortened: as §1

[20] = biological target: Neu5Ac(a2-3)[GalNAc(b1-4)]Gal(b1-4)GlcNAc(b1-3)GalNAc
Procedure, shortened: as §1

[21] = biological target: Neu5Ac(a2-3)[Neu5Ac(a2-6)]GalNAc
Procedure, shortened: as §1

[22] = biological target: Neu5Ac(a2-6)Gal
Procedure, shortened: as §1

[23] = biological target: Neu5Ac(a2-6)Gal(b1-3)GlcNAc(b1-3)[Gal(b1-4)GlcNAc(b1-6)]Gal(b1-4)Glc
Procedure, shortened: as §1

[24] = biological target: Neu5Ac(a2-6)Gal(b1-4)Glc
Procedure, shortened: as §1

[25] = biological target: Neu5Ac(a2-6)Gal(b1-4)GlcNAc
Procedure, shortened: as §1

[26] = biological target: Neu5Ac(a2-6)Gal(b1-4)GlcNAc(b1-2)Man
Procedure, shortened: as §1

[27] = biological target: Neu5Ac(a2-6)Gal(b1-4)GlcNAc(b1-2)Man(a1-3)Man(b1-4)GlcNAc(b1-4)GlcNAc
Procedure, shortened: as §1

[28] = biological target: Neu5Ac(a2-6)Gal(b1-4)GlcNAc(b1-2)Man(a1-3)[Gal(b1-4)GlcNAc(b1-2)Man(a1-6)]Man(b1-4)GlcNAc(b1-4)GlcNAc
Procedure, shortened: as §1

[29] = biological target: Neu5Ac(a2-6)Gal(b1-4)GlcNAc(b1-2)Man(a1-3)[GlcNAc(b1-2)Man(a1-6)]Man(b1-4)GlcNAc(b1-4)GlcNAc
Procedure, shortened: as §1

[30] = biological target: Neu5Ac(a2-6)Gal(b1-4)GlcNAc(b1-2)Man(a1-3)[GlcNAc(b1-4)][Neu5Ac(a2-6)Gal(b1-4)GlcNAc(b1-2)Man(a1-6)]Man(b1-4)GlcNAc(b1-4)GlcNAc
Procedure, shortened: as §1

[31] = biological target: Neu5Ac(a2-6)Gal(b1-4)GlcNAc(b1-2)Man(a1-3)[Man(a1-6)]Man(b1-4)GlcNAc(b1-4)GlcNAc
Procedure, shortened: as §1

[32] = biological target: Neu5Ac(a2-6)Gal(b1-4)GlcNAc(b1-2)Man(a1-3)[Neu5Ac(a2-3)Gal(b1-4)GlcNAc(b1-2)Man(a1-6)]Man(b1-4)GlcNAc(b1-4)GlcNAc
Procedure, shortened: as §1

[33] = biological target: Neu5Ac(a2-6)Gal(b1-4)GlcNAc(b1-2)Man(a1-3)[Neu5Ac(a2-6)Gal(b1-4)GlcNAc(b1-2)Man(a1-6)]Man(b1-4)GlcNAc(b1-4)GlcNAc
Procedure, shortened: as §1

[34] = biological target: Neu5Ac(a2-6)Gal(b1-4)GlcNAc(b1-2)Man(a1-3)[Neu5Ac(a2-6)Gal(b1-4)GlcNAc(b1-2)Man(a1-6)]Man(b1-4)GlcNAc(b1-4)[Fuc(a1-6)]GlcNAc
Procedure, shortened: as §1

[35] = biological target: Neu5Ac(a2-6)Gal(b1-4)GlcNAc(b1-2)Man(a1-6)Man(b1-4)GlcNAc(b1-4)GlcNAc
Procedure, shortened: as §1

[36] = biological target: Neu5Ac(a2-6)Gal(b1-4)GlcNAc(b1-2)Man(a1-6)[Gal(b1-4)GlcNAc(b1-2)Man(a1-3)]Man(b1-4)GlcNAc(b1-4)GlcNAc
Procedure, shortened: as §1

[37] = biological target: Neu5Ac(a2-6)Gal(b1-4)GlcNAc(b1-2)Man(a1-6)[GlcNAc(b1-2)Man(a1-3)]Man(b1-4)GlcNAc(b1-4)GlcNAc
Procedure, shortened: as §1

[38] = biological target: Neu5Ac(a2-6)Gal(b1-4)GlcNAc(b1-2)Man(a1-6)[Man(a1-3)]Man(b1-4)GlcNAc(b1-4)GlcNAc
Procedure, shortened: as §1

[39] = biological target: Neu5Ac(a2-6)Gal(b1-4)GlcNAc(b1-2)[Neu5Ac(a2-6)Gal(b1-4)GlcNAc(b1-4)]Man(a1-3)[GlcNAc(b1-4)][Neu5Ac(a2-6)Gal(b1-4)GlcNAc(b1-2)[Neu5Ac(a2-6)Gal(b1-4)GlcNAc(b1-6)]Man(a1-6)]Man(b1-4)GlcNAc(b1-4)GlcNAc
Procedure, shortened: as §1

[40] = biological target: Neu5Ac(a2-6)Gal(b1-4)GlcNAc(b1-2)[Neu5Ac(a2-6)Gal(b1-4)GlcNAc(b1-4)]Man(a1-3)[GlcNAc(b1-4)][Neu5Ac(a2-6)Gal(b1-4)GlcNAc(b1-4)Man(a1-6)]Man(b1-4)GlcNAc(b1-4)GlcNAc
Procedure, shortened: as §1

[41] = biological target: Neu5Ac(a2-6)Gal(b1-4)GlcNAc(b1-2)[Neu5Ac(a2-6)Gal(b1-4)GlcNAc(b1-6)]Man(a1-6)[Neu5Ac(a2-6)Gal(b1-4)GlcNAc(b1-2)Man(a1-3)][GlcNAc(b1-4)]Man(b1-4)GlcNAc(b1-4)GlcNAc
Procedure, shortened: as §1

[42] = biological target: Neu5Ac(a2-6)Gal(b1-4)GlcNAc(b1-3)Gal(b1-3)GlcNAc
Procedure, shortened: as §1

[43] = biological target: Neu5Ac(a2-6)Gal(b1-4)GlcNAc(b1-3)Gal(b1-4)GlcNAc
Procedure, shortened: as §1

[44] = biological target: Neu5Ac(a2-6)Gal(b1-4)GlcNAc(b1-3)Gal(b1-4)GlcNAc(b1-2)Man(a1-3)[Neu5Ac(a2-6)Gal(b1-4)GlcNAc(b1-3)Gal(b1-4)GlcNAc(b1-2)Man(a1-6)]GalNAc
Procedure, shortened: as §1

[45] = biological target: Neu5Ac(a2-6)Gal(b1-4)GlcNAc(b1-3)Gal(b1-4)GlcNAc(b1-3)Gal(b1-4)GlcNAc
Procedure, shortened: as §1

B1: Loc1 (Escherichia coli) (protein)
chain: APCALTNVGEQRGTYILKPLSMKGNLTAEKIENTGNIIECTDLQETTNAIKVHFLTQNALKFKVGSRHYIINFPFEYDGKKIELPGKSSYNLEEMLSAINFTIPYSIASVSDSSNTADIFPGTPFPLLFEIEVSSCTGNNTNCNSVRFNYNLNTILQVNLMTHHHHHH
**Q.** B1 was tested. Which “glycan array binding signal (z-score)” value [1] did it give?
**A.** -0.819

**Q.** And the “glycan array binding signal (z-score)” value [2]?
**A.** 0.621

**Q.** And the “glycan array binding signal (z-score)” value [3]?
**A.** -1.46

**Q.** And the “glycan array binding signal (z-score)” value [4]?
**A.** 0.385

**Q.** What about the “glycan array binding signal (z-score)” value [5] of the same binder?
**A.** -0.223

**Q.** And the “glycan array binding signal (z-score)” value [6]?
**A.** -0.628

**Q.** What about the “glycan array binding signal (z-score)” value [7] of the same binder?
**A.** 0.573

**Q.** And the “glycan array binding signal (z-score)” value [8]?
**A.** 0.802

**Q.** And the “glycan array binding signal (z-score)” value [9]?
**A.** 0.477

**Q.** And the “glycan array binding signal (z-score)” value [10]?
**A.** 0.87

**Q.** And the “glycan array binding signal (z-score)” value [11]?
**A.** 0.505

**Q.** What about the “glycan array binding signal (z-score)” value [12] of the same binder?
**A.** -0.445

**Q.** What about the “glycan array binding signal (z-score)” value [13] of the same binder?
**A.** 0.57

**Q.** What about the “glycan array binding signal (z-score)” value [14] of the same binder?
**A.** 0.135

**Q.** And the “glycan array binding signal (z-score)” value [15]?
**A.** -0.948

**Q.** And the “glycan array binding signal (z-score)” value [16]?
**A.** -0.556

**Q.** And the “glycan array binding signal (z-score)” value [17]?
**A.** -0.495

**Q.** What about the “glycan array binding signal (z-score)” value [18] of the same binder?
**A.** -1.33

**Q.** And the “glycan array binding signal (z-score)” value [19]?
**A.** 0.303

**Q.** And the “glycan array binding signal (z-score)” value [20]?
**A.** 1.06

**Q.** What about the “glycan array binding signal (z-score)” value [21] of the same binder?
**A.** 1.35

**Q.** And the “glycan array binding signal (z-score)” value [22]?
**A.** 0.088

**Q.** And the “glycan array binding signal (z-score)” value [23]?
**A.** -1.2

**Q.** And the “glycan array binding signal (z-score)” value [24]?
**A.** -0.014

**Q.** What about the “glycan array binding signal (z-score)” value [25] of the same binder?
**A.** 0.239

**Q.** What about the “glycan array binding signal (z-score)” value [26] of the same binder?
**A.** -1.24

**Q.** What about the “glycan array binding signal (z-score)” value [27] of the same binder?
**A.** 1.52

**Q.** What about the “glycan array binding signal (z-score)” value [28] of the same binder?
**A.** -0.138

**Q.** And the “glycan array binding signal (z-score)” value [29]?
**A.** -0.15

**Q.** And the “glycan array binding signal (z-score)” value [30]?
**A.** -0.814

**Q.** What about the “glycan array binding signal (z-score)” value [31] of the same binder?
**A.** -0.169

**Q.** And the “glycan array binding signal (z-score)” value [32]?
**A.** 0.21

**Q.** And the “glycan array binding signal (z-score)” value [33]?
**A.** -0.515

**Q.** What about the “glycan array binding signal (z-score)” value [34] of the same binder?
**A.** -0.229

**Q.** And the “glycan array binding signal (z-score)” value [35]?
**A.** 0.078

**Q.** And the “glycan array binding signal (z-score)” value [36]?
**A.** 1.7

**Q.** What about the “glycan array binding signal (z-score)” value [37] of the same binder?
**A.** 1.58

**Q.** What about the “glycan array binding signal (z-score)” value [38] of the same binder?
**A.** -0.441

**Q.** And the “glycan array binding signal (z-score)” value [39]?
**A.** -0.632

**Q.** And the “glycan array binding signal (z-score)” value [40]?
**A.** -1.61

**Q.** And the “glycan array binding signal (z-score)” value [41]?
**A.** -0.217

**Q.** And the “glycan array binding signal (z-score)” value [42]?
**A.** 0.195

**Q.** And the “glycan array binding signal (z-score)” value [43]?
**A.** -0.082

**Q.** What about the “glycan array binding signal (z-score)” value [44] of the same binder?
**A.** -0.36

**Q.** And the “glycan array binding signal (z-score)” value [45]?
**A.** -0.927
